Results deposited as PubChem BioAssay AID652272 (Drosophila RNAi Screening Center, 2013).

- Purpose: 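Genes whose knock-down decreases or increases Hedgehog reporter output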 (primary screen)
- Cell system: Drosophila clone 8 (Cl8) cells
- Knock-down reagent: long dsRNA against Drosophila genes
- Read-out: 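Firefly light from a Hedgehog-responsive ptc promoter reporter and Renilla reference light, both read on a plate reader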
- Reading the numbers: firefly Hh reporter signal: higher = more ptc reporter light; Renilla reference signal: higher = more Renilla control light
- Hit rule: 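Called a hit if the two-replicate mean z-score lies below -2 or above +3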
- Meaning of the calls: active = hit: reporter lowered or raised; inactive = not a hit
The deposit covers about 21,000 reagents; this is a random part of those that have a named target and a result. Over the whole deposit, 503 (2.4%) are marked active. 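Raw plate light values, not normalised; calls rest on replicate z-scores that were not deposited; hits include reporter decreases as well as increases.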 The numbers tell different reagents against one gene apart. Names joined by + are all predicted targets of the reagent. Not stated in the record: the amount of reagent, the time to read-out.

predicted target	reagent	firefly Hh reporter signal, replicate 1	firefly Hh reporter signal, replicate 2	firefly Hh reporter signal, replicate 3	Renilla reference signal, replicate 1	Renilla reference signal, replicate 2	outcome
CG13738	1	38784	25645	30487	4472	1306	inactive
CG17111	1	5.54e5	1.02e5		25985	2786	inactive
mino	1	81568	74112		1732	2089	inactive
CG42496 + Ppcdc	1	5.95e5	74423	1.13e5	4658	1261	inactive
CG14257	1	1.14e5	1.30e5		3989	4064	inactive
Apl	1	1.44e5			5000	4372	inactive
CG9257	1	66117	50405		1814	4506	inactive
CG17010	1	1.24e5	85671		5701	3201	inactive
Nepl18	1	1.01e5	1.15e5		3116	4325	inactive
CG14362	1	1.08e5	93222		3955	2755	inactive
BthD	1	1.26e5	3.63e5		3922	14032	inactive
lncRNA:CR31781	1	1.35e5	71926		4737	3168	inactive
lncRNA:CR31781	2	86936	50820		2362	4324	inactive
CG15023	1	69153	77069		6354	5411	inactive
tkv + CR14033 + tRNA:Asp-GTC-2-1 + 1 more	1	8.04e5	8.58e5	3.09e5	40333	5805	inactive
RpS10b	1	2.72e5	1.56e5	3.65e5	3177	6165	active
Ir56d	1	89300	58818		2080	3975	inactive
CG14314	1	6.52e5	78055		31908	1874	inactive
CG4238	1	7.59e5	2.65e5		38108	11989	inactive
CG4238	2	1.17e5	1.35e5		2506	3399	inactive
CG34269	1	1.01e5	1.80e5		3136	7293	inactive
lncRNA:CR42646	1	1.06e5	2.18e5		2290	8932	inactive
Ehbp1	1	1.29e5	86069		5161	3082	inactive
CG5250	1	5.94e5	75244		31322	2061	inactive
Oat	1	71889	51565		3061	1963	inactive
Coprox	1	40176	38042		2802	1638	inactive
Rab39	1	77078	2.22e5		1884	9260	inactive
NFAT	1	4.19e5	1.07e5		28407	3729	inactive
NFAT	2	1.13e5	3.19e5		3505	13248	inactive
CG14718	1	1.67e5	1.23e5		7065	4935	inactive
CG15771	1	80135	1.38e5		3075	5050	inactive
Inx2	1	1.07e5	86563		2740	2269	inactive
Mlp84B	1	59661	85363		2752	2642	inactive
PGRP-SC1a	1	98121	51239		2184	4130	inactive
CG42322	1	1.27e5	69559		5260	2896	inactive
CG42322	2	6.06e5	1.33e5		36353	9476	inactive
CG42322	3	4.33e5	33991		24717	2660	inactive
nxf4	1	64183	87532		2556	2650	inactive
COX5A	1	69091	96349		1665	2098	inactive
Cmtr1	1	90108	1.73e5		3136	6752	inactive
CR42532	1	1.09e5	88865		2928	6368	inactive
Uch-L5	1	1.10e5	27184		5264	1916	inactive
CG43376	1	74609	34545		1992	3872	inactive
CG17264	1	51504	1.20e5		2752	5212	inactive
CG10116	1	68121	77987		2931	3204	inactive
CCHa2	1	1.73e5	6.40e5	1.52e5	4978	5360	inactive
rdhB	1	1.06e5	59540		4362	2339	inactive
CG5440	1	1.13e5	94632		3154	2390	inactive
Cpr49Ah	1	76805	59035		1611	3536	inactive
CG13532	1	1.25e5	91557		2781	8279	inactive
CG42810	1	87066	43325		2391	4073	inactive
CG3581	1	4.99e5	72412		23447	1796	inactive
CG31955	1	2.31e5	88677		5098	8328	inactive
CG8420	1	69987	70564		2536	2428	inactive
Grx3	1	1.26e5	62205		4925	2744	inactive
BNIP3	1	77800	87991		3037	2650	inactive
Vap33	1	1.52e5	1.20e5		2996	3553	inactive
